# Assay results as given in US11130772B2, “CYP-eicosanoid derivatives” (MAX-DELBRUECK-CENTRUM FUER MOLEKULARE MEDIZIN, priority 2014, dated 2021).
# For at least one compound, name, drawing or mass did not settle the structure.
# System: spontaneously beating neonatal rat cardiomyocytes (NRCMs)
# Assay: Chronotropic effect on spontaneously beating neonatal rat cardiomyocytes (in vitro cardiac arrhythmia model)
# Type: cell-based, neonatal Wistar rats
# Details: 3.3 μM final concentration, 30 min incubation
# From the text: The activity of the n-3 PUFA analogues according to the invention can, for example, be determined in appropriate in vitro and/or in vivo assays. For instance, the biological activity of the n-3 PUFA analogues according to the present invention may be determined using the established cell model of Kang and Leaf (Proc Natl Acad Sci USA, 1994. 91(21): p. 9886-90.) known to those skilled in the art.
# In order to measure the biological activities of the novel compounds an established cell model was used (Kang, J. X. and A. Leaf, Effects of long-chain polyunsaturated fatty acids on the contraction of neonatal rat cardiac myocytes. Proc Natl Acad Sci USA, 1994. 91(21): p. 9886-90.). […]
# Isolation and cultivation of NRCMs were performed as described previously (Wallukat, G; Wollenberger, A. Biomed Biochim Acta. 1987;78:634-639; Wallukat G, Homuth V, Fischer T, Lindschau C, Horstkamp B, Jupner A, Baur E, Nissen E, Vetter K, Neichel D, Dudenhausen J W, Haller H, Luft F C. J Clin Invest. 1999; 103: 945-952). […] Two hours later, the beating rates were monitored at 37° C. using an inverted microscope equipped with a heating stage. To determine the basal rate, 6 to 8 individual clusters were selected and the number of contractions was counted for 15 sec. After that, the compound to be tested was added to the culture and the beating rate of the same clusters was monitored 5 min later again. […]
compound,measurement,value
"CC/C=C\C/C=C\C/C=C\C/C=C\C/C=C\CCCC(=O)O [EPA, eicosapentaenoic acid, reference compound]",chronotropic effect on spontaneous beating rate (in words),negative chronotropic effect
